Experimental data from paper PMC8096975.
Results are given in words; binding and its absence hold for the method and conditions named. In cells and extracts the contact can be indirect. A yes stands for co-enrichment or nearness to the bait. Other partners may have been found. Tags and fused reporters may be left off the sequences shown.

Target: T1, GIPC2-HA (human) (UniProt Q8TF65)
T1 sequence: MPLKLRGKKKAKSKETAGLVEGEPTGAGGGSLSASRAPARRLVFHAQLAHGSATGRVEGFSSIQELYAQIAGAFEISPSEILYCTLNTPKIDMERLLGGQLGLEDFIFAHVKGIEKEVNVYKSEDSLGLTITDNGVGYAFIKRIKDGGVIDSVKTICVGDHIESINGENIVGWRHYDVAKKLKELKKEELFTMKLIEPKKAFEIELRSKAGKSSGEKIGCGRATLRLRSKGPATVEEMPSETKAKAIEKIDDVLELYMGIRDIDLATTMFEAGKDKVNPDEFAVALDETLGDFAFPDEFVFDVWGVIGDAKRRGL
Experiment: affinity purification with mass spectrometry; extracts of 293T cells overexpressing GIPC2-HA immunoprecipitated with anti-HA antibody; SDS-PAGE, coomassie staining, four bands excised, LC-MS/MS

B1: NONO (endogenous, 293T) (protein, UniProt Q15233 1-471)
chain: MQSNKTFNLEKQNHTPRKHHQHHHQQQHHQQQQQQPPPPPIPANGQQASSQNEGLTIDLKNFRKPGEKTFTQRSRLFVGNLPPDITEEEMRKLFEKYGKAGEVFIHKDKGFGFIRLETRTLAEIAKVELDNMPLRGKQLRVRFACHSASLTVRNLPQYVSNELLEEAFSVFGQVERAVVIVDDRGRPSGKGIVEFSGKPAARKALDRCSEGSFLLTTFPRPVTVEPMDQLDDEEGLPEKLVIKNQQFHKEREQPPRFAQPGSFEYEYAMRWKALIEMEKQQQDQVDRNIKEAREKLEMEMEAARHEHQVMLMRQDLMRRQEELRRMEELHNQEVQKRKQLELRQEEERRRREEEMRRQQEEMMRRQQEGFKGTFPDAREQEIRMGQMAMGGAMGINNRGAMPPAPVPAGTPAPPGPATMMPDGTLGLTPPTTERFGQAATMEGIGAIGGTPPAFNRAAPGAEFAPNKRRRY
binding: binds
